Counter-ions that a name gives are not always drawn. This is one part of the list. Hit calls seldom repeat between salt and free forms of one compound.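 Kinases, fused to nanoluciferase, were expressed in K562 cells; luminescence was measured every 4 h from 2 to 18 h as percent of control (DMSO = 100%, positive control = 0%). A time point is decreased if signal falls significantly (2 sigma). Hits were called by the authors by a rule that is not shown; the count of time points alone does not decide it.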
Assays:
Test in all cases: number of time points (of 5) at which kinase-Nluc abundance scored as decreased, DMSO-normalised (count); higher = more persistent destabilization
Conditions in all cases: K562; 2-18 h
LMTK2 = LMTK2 (UniProt Q8IWU2)
LYN = LYN (UniProt P07948)
MAP2K1 = MAP2K1 (UniProt Q02750)
MAP2K2 = MAP2K2 (UniProt P36507)
MAP4K2 = MAP4K2 (UniProt Q12851)
MAPK1 = MAPK1 (UniProt P28482)
MAPK4 = MAPK4 (UniProt P31152)
MAPKAPK2 = MAPKAPK2 (UniProt P49137)
MKNK1 = MKNK1 (UniProt Q9BUB5)
NTRK2 = NTRK2 (UniProt Q16620)

The chains behind the UniProt entries cited, without tags or fusion partners. Where a name states a change or a piece, a line headed by the entry shows the natural chain unless it says otherwise.
UniProt Q8IWU2: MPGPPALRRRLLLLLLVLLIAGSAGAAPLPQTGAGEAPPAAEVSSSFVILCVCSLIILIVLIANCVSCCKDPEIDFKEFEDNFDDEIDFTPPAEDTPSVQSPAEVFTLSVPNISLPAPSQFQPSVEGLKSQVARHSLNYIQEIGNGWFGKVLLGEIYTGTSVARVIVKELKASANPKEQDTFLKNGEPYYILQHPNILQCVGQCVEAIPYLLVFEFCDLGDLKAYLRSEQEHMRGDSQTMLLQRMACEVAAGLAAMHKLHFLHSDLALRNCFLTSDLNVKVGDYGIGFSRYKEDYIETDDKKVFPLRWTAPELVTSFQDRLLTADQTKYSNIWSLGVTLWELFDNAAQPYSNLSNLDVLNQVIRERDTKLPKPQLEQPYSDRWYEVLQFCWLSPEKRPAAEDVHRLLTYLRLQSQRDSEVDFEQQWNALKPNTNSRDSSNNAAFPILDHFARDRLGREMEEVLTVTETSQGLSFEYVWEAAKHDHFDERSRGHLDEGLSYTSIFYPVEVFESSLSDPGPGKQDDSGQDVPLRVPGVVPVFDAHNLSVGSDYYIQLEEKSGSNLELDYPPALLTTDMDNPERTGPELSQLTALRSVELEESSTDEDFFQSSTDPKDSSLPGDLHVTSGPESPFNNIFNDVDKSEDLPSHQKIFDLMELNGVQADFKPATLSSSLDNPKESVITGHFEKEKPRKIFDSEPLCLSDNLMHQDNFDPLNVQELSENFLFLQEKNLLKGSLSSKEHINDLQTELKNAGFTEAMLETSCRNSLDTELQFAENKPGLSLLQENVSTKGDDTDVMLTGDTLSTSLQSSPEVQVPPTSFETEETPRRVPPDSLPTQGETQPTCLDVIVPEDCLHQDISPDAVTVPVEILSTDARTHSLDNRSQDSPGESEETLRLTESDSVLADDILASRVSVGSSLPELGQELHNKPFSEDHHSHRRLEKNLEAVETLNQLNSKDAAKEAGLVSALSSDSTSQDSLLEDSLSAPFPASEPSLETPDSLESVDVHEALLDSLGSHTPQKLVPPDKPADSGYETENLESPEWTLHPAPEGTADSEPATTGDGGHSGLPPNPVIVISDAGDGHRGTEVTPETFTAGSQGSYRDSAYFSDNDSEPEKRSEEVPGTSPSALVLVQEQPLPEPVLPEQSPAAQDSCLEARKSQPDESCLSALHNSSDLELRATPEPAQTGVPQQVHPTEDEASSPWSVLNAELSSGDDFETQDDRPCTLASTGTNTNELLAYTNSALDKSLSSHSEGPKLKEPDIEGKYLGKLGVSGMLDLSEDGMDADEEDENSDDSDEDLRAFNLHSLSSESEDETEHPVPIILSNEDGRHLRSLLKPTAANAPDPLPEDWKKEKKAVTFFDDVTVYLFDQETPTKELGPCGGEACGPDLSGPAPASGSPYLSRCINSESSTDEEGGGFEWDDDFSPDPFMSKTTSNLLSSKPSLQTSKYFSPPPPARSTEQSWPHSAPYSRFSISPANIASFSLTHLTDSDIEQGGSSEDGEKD
UniProt P07948: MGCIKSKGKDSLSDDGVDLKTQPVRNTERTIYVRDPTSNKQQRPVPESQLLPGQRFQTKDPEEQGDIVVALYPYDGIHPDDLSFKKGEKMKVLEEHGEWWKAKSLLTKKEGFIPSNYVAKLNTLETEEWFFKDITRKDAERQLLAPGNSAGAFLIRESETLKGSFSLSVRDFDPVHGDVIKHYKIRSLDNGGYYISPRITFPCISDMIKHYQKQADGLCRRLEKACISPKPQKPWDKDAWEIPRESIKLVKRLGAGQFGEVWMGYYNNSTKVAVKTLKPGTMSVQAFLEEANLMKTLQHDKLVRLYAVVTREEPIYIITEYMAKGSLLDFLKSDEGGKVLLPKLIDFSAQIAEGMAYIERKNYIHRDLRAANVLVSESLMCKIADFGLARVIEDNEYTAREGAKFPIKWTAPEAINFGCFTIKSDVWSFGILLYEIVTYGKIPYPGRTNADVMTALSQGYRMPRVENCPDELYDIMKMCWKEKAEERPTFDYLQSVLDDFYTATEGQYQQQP
UniProt Q12851: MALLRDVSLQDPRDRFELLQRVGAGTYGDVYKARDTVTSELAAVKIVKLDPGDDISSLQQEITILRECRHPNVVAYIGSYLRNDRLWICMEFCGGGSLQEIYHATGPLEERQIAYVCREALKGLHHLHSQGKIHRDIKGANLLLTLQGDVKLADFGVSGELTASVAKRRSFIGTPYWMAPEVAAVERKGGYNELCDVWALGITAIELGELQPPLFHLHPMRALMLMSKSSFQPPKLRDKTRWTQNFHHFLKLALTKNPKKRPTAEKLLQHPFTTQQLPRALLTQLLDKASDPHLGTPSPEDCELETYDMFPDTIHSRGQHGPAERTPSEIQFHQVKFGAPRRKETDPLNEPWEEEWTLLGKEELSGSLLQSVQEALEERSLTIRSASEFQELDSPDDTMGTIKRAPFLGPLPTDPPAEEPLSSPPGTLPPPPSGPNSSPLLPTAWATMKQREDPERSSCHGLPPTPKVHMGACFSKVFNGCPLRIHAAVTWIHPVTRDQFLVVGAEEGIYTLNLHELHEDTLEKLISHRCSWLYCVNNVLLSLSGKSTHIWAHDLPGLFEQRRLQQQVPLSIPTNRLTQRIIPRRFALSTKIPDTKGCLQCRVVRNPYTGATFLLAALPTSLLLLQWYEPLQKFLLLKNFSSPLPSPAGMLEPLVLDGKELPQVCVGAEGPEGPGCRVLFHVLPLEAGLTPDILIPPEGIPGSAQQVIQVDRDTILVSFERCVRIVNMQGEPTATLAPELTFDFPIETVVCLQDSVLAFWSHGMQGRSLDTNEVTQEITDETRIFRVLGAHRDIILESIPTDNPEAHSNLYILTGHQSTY
UniProt P28482, whole entry: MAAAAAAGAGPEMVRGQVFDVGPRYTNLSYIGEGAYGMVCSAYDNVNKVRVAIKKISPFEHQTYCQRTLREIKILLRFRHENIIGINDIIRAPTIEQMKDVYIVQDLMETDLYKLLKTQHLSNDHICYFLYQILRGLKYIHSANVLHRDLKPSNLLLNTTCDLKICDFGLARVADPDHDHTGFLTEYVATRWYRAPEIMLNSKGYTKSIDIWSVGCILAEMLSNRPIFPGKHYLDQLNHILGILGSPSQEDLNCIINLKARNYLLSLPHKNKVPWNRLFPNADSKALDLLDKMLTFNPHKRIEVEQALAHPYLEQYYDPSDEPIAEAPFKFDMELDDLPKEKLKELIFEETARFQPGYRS
UniProt P31152, whole entry: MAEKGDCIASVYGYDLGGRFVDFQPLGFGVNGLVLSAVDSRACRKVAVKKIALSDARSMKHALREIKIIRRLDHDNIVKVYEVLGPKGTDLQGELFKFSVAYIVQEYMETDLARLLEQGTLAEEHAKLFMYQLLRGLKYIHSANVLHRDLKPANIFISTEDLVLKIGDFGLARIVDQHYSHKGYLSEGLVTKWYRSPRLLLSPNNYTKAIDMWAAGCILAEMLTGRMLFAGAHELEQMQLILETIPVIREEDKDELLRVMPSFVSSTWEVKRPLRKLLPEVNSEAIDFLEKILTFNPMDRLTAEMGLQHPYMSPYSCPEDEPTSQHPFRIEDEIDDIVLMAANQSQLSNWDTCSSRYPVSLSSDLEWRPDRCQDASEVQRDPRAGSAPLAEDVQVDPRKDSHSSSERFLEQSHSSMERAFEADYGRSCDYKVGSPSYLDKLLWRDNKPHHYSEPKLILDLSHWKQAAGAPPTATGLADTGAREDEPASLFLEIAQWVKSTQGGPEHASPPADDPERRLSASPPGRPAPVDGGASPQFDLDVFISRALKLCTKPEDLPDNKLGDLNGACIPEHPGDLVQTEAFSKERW
UniProt P49137, whole entry, looked up: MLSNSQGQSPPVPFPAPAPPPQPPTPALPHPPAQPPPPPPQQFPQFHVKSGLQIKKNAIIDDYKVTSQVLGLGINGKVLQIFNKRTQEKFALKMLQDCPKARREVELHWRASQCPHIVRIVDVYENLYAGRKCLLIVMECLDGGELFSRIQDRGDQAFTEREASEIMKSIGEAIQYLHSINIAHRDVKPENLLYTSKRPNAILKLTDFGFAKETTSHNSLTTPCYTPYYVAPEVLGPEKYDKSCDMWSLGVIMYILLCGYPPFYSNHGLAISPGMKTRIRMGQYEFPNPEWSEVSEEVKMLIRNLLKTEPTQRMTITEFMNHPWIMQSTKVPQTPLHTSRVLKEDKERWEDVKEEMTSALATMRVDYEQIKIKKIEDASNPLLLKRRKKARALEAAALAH
UniProt Q9BUB5: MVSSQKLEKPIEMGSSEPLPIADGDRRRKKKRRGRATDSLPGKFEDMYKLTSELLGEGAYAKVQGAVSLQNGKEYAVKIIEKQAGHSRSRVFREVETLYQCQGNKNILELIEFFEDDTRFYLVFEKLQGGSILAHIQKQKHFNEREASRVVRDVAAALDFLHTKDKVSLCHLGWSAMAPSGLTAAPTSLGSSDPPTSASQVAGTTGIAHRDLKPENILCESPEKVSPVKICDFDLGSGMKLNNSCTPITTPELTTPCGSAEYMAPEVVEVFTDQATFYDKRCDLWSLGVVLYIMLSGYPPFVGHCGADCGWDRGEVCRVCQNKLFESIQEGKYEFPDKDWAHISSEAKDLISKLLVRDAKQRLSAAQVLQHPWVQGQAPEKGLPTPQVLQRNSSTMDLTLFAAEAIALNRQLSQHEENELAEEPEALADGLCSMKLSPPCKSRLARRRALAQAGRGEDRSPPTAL
UniProt Q16620, whole entry, looked up: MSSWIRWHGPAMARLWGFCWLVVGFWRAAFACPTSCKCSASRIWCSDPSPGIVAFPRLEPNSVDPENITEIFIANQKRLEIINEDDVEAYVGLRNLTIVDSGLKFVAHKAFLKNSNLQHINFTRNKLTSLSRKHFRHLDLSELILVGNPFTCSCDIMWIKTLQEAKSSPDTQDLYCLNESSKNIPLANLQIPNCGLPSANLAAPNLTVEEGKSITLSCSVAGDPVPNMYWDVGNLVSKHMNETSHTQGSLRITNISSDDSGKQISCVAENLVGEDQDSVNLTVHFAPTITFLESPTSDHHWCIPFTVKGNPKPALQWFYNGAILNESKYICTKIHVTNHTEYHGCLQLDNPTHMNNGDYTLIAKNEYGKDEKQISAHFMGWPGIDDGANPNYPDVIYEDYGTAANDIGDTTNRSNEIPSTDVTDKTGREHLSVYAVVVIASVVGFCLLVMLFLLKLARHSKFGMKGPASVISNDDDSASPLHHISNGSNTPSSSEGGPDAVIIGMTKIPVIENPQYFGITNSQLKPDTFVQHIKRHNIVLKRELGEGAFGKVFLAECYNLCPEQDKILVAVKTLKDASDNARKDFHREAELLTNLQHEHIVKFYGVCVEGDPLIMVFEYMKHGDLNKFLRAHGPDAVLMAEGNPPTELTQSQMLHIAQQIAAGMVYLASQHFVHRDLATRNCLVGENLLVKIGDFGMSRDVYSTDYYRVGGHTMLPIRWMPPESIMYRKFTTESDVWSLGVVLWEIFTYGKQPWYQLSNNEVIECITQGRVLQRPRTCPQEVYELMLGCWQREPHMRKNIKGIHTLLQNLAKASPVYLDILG

Row | SMILES | number of time points (LMTK2) | number of time points (LYN) | number of time points (MAP2K1) | number of time points (MAP2K2) | number of time points (MAP4K2) | number of time points (MAPK1) | number of time points (MAPK4) | number of time points (MAPKAPK2) | number of time points (MKNK1) | number of time points (NTRK2)
1 | CCN(CC)CCCCNc1ncc2cc(-c3cc(OC)cc(OC)c3)c(NC(=O)NC(C)(C)C)nc2n1 (10 µM) | 0 | 0 | 0 | 0 | 0 | 0 | 0 | 0 | 0 | 0
2 | O=c1cc(-c2ccccc2)oc2c(O)c(O)ccc12 [7,8-Dihydroxyflavone] (10 µM) | 0 | 0 | 0 | 0 | 0 | 0 | 0 | 0 | 0 | 0
3 | COc1cc(F)cc([C@@H](CO)NC(=O)[C@@H](C)N2Cc3ccc(-c4nc(NC5CCOCC5)ncc4Cl)cc3C2=O)c1 [ERK1/2 inhibitor 2] (10 µM) | 0 | 0 | 0 | 0 | 0 | – | 0 | 0 | 0 | 2
4 | Cc1cc(C(=O)Nc2cccc(C(=O)Nc3cccc(C(F)(F)F)c3)c2)on1 (10 µM) | 0 | 0 | 0 | 0 | 0 | 0 | 0 | 0 | 0 | 0
5 | Cn1nc(C(C)(C)C)cc1NC(=O)Nc1ccc(Oc2ccncc2)cc1 (10 µM) | 2 | 0 | 0 | 0 | 0 | 0 | 0 | 0 | 0 | 0
6 | C[C@]1(O)C[C@@H](c2nc(-c3ccc4ccc(-c5ccccc5)nc4c3)c3c(N)nccn32)C1 [Linsitinib] (2.5 µM) | 0 | 0 | 0 | 0 | 0 | 0 | 0 | 0 | 0 | 0
7 | Cc1cccc([C@@H](CO)NC(=O)[C@@H](C)N2Cc3ccc(-c4nc(NC5CCOCC5)ncc4Cl)cc3C2=O)c1 [ERK1/2 inhibitor 1] (10 µM) | 0 | 0 | 0 | 0 | 0 | – | 0 | 0 | 0 | 0
8 | COc1cc(OC)cc(N(CCNC(C)C)c2ccc3ncc(-c4cnn(C)c4)nc3c2)c1 [Erdafitinib] (2.5 µM) | 0 | 0 | 0 | 0 | 0 | 0 | 0 | 0 | 0 | 0
9 | CN(C)C[C@@H]1CCn2cc(c3ccccc32)C2=C(C(=O)NC2=O)c2cn(c3ccccc23)CCO1 [Ruboxistaurin (hydrochloride)] (10 µM) | 0 | 0 | 0 | 0 | 0 | 0 | 0 | 0 | 0 | 0
10 | Cc1ccc2c(Nc3cccc(OC(F)(F)F)c3)nccc2c1Nc1ncccc1-c1ncnc2[nH]cnc12 (10 µM) | 0 | 0 | 0 | 0 | 0 | 0 | 0 | 0 | 0 | 0
11 | COc1cc2c(Nc3ccc(Br)cc3F)ncnc2cc1OCCn1ccnn1 (10 µM) | 0 | 0 | 0 | 0 | 0 | 0 | 0 | 0 | 0 | 0
12 | O=c1oc2c(C3OCCCO3)c(O)ccc2c2c1CNCC2 (10 µM) | 0 | 0 | 0 | 0 | 0 | 0 | 0 | 0 | 0 | 0
13 | O=C(NOC[C@H](O)CO)c1ccc(F)c(F)c1Nc1ccc(I)cc1F (2.5 µM) | 0 | 0 | – | 0 | 0 | 0 | 0 | 0 | 0 | 0
14 | C=CC(=O)N1CCN(CCCn2c(=O)c(-c3c(Cl)c(OC)cc(OC)c3Cl)cc3cnc(NC)nc32)CC1 (10 µM) | 0 | 0 | 0 | 0 | 0 | 0 | 0 | 0 | 0 | 0
15 | Cc1ccc(S(=O)(=O)Nc2nc3ccccc3nc2Nc2ccc3nsnc3c2)cc1 [Pilaralisib analogue] (10 µM) | 0 | 0 | 0 | 0 | 0 | 0 | 0 | 0 | – | 1
16 | COc1cc(C)c(Sc2cnc(NC(=O)c3ccc(CNC(C)C(C)(C)C)cc3)s2)cc1C(=O)N1CCN(C(C)=O)CC1 (centres undefined) (2.5 µM) | 0 | 0 | 0 | 0 | 0 | 0 | 0 | 0 | 0 | 0
17 | COc1ccc(COc2ccc(Cc3cnc(N)nc3N)cc2OC)cc1 (10 µM) | 0 | 0 | 0 | 0 | 0 | 0 | 0 | 0 | 0 | 0

A few values from the results shown:
Under number of time points (MAPK1), COc1cc(OC)cc(N(CCNC(C)C)c2ccc3ncc(-c4cnn(C)c4)nc3c2)c1 [Erdafitinib] (2.5 µM) reads 0
Under number of time points (MAPKAPK2), CN(C)C[C@@H]1CCn2cc(c3ccccc32)C2=C(C(=O)NC2=O)c2cn(c3ccccc23)CCO1 [Ruboxistaurin (hydrochloride)] (10 µM) reads 0

(cont.)

Row | SMILES | number of time points (LMTK2) | number of time points (LYN) | number of time points (MAP2K1) | number of time points (MAP2K2) | number of time points (MAP4K2) | number of time points (MAPK1) | number of time points (MAPK4) | number of time points (MAPKAPK2) | number of time points (MKNK1) | number of time points (NTRK2)
18 | Cc1c(Cn2c(C)nc3c(C(=O)O)cc(N4CCOCC4)cc32)cccc1C(F)(F)F (10 µM) | 0 | 0 | 0 | 0 | 0 | 0 | 0 | – | 0 | 0
19 | Cn1c(=O)c(Oc2ccc(F)cc2F)cc2cnc(NC3CCOCC3)nc21 [R1487 (Hydrochloride)] (10 µM) | 0 | 0 | 0 | 0 | 0 | 0 | 0 | 0 | 0 | 0
20 | O=C1c2ccccc2-c2n[nH]c3cccc1c23 (10 µM) | 0 | 0 | 0 | 0 | 0 | 0 | 0 | 0 | 0 | 0
21 | CN1CCN(S(=O)(=O)c2ccc(-c3cnc(N)c(C(=O)Nc4cccnc4)n3)cc2)CC1 (10 µM) | 0 | 0 | 0 | 0 | 0 | 0 | 0 | 0 | 0 | 0
22 | Nc1ncnc2c1c(-c1ccc(Oc3ccccc3)cc1)cn2C1CCCC1 (2.5 µM) | 0 | 0 | 0 | 0 | 0 | 0 | 0 | 0 | 4 | 0
23 | CCCCC[C@H](O)CC(=O)CCc1ccc(O)c(OC)c1 [[6]-Gingerol] (10 µM) | 0 | 0 | 0 | 0 | 0 | 0 | 0 | 0 | 0 | 0
24 | CCCS(=O)(=O)Nc1ccc(F)c(C(=O)c2c[nH]c3ncc(Cl)cc23)c1F (10 µM) | 0 | 0 | 0 | 0 | 0 | 0 | 0 | 0 | 1 | 0
25 | CC(C)c1cnn2c(NCc3ccccc3)cc(NC[C@H]3CCNC[C@@H]3O)nc12 [Samuraciclib (hydrochloride)] (10 µM) | 0 | 0 | 0 | 0 | 0 | 0 | 0 | 0 | 0 | 0
26 | Cc1ccc2c(Nc3ccc(Cl)cc3)nccc2c1Nc1ncccc1-c1ncnc2nc[nH]c12 [Raf inhibitor 1] (2.5 µM) | 0 | 0 | 0 | 0 | 0 | 0 | 0 | 0 | 0 | 0
27 | CC#CC(=O)N[C@H]1CCCN(c2c(F)cc(C(N)=O)c3[nH]c(C)c(C)c23)C1 [Branebrutinib] (10 µM) | 0 | 0 | 0 | 0 | 0 | 0 | 0 | 0 | 0 | 0
28 | Cc1nc(N)sc1-c1ccnc(Nc2ccc(N3CCOCC3)cc2)n1 (10 µM) | 0 | 0 | 0 | 0 | 0 | 0 | 0 | 0 | 0 | 0
29 | CN1CCC(Nc2ncc3ncnc(Nc4ccc(F)c(Cl)c4)c3n2)CC1 [Falnidamol] (10 µM) | 0 | 0 | 0 | 0 | 0 | 0 | 0 | 0 | 0 | 0
30 | COc1cc(CCc2cc(-c3nc4ccc(N5CCN(C)CC5)cc4[nH]3)n[nH]2)cc(OC)c1 (10 µM) | 1 | 0 | 0 | 0 | 0 | 0 | 0 | 0 | 2 | 0
31 | COc1ccc2c(C(=O)Nc3ccc(NC(=O)c4nn(C5CCN(C(=O)CC(C)(C)C#N)CC5)c5ccc(F)cc45)cc3Cl)cnn2c1 [Src Inhibitor 3] (2.5 µM) | 1 | 5 | 0 | 0 | 0 | 0 | 1 | 1 | 1 | 0
32 | N#C/C(=C\c1ccc(O)c(O)c1)C(=O)NCc1ccccc1 (10 µM) | 0 | 0 | 0 | 0 | 0 | 0 | 0 | 0 | 0 | 0
33 | O=C1NCCc2[nH]c(-c3ccnc(-c4cnc5ccccc5c4)c3)cc21 (10 µM) | 0 | 0 | 0 | 0 | 0 | 0 | 0 | – | 0 | 0
34 | C=CC(=O)N1CCC[C@@H](n2nc(-c3ccc(Oc4ccccc4)cc3)c(C(N)=O)c2N)C1 [Btk inhibitor 2] (10 µM) | 0 | 0 | 0 | 0 | 0 | 0 | 0 | 0 | 0 | 0

— the supplement of paper PMC12823440, “Inhibitors supercharge kinase turnover through native proteolytic circuits” (Nature, 2025)
